Data reported in doi:10.1101/2021.02.17.431446.
No constants are given. Whether binding was seen depends on the method and setting. Binding seen in cells or lysates may run through a third protein. Sequences can lack the tags named with a protein.

By UniProt entry, the sequences of proteins in these tests, tags left out.
UniProt P09429: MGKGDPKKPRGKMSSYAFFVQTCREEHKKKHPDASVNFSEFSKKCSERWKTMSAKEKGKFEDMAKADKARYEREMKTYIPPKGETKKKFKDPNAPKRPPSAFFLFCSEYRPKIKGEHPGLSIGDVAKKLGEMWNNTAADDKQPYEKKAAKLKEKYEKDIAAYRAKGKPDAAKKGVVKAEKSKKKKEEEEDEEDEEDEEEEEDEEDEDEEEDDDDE

Biological target: T1, HA-LXRα (human) (UniProt Q13133)
T1 sequence: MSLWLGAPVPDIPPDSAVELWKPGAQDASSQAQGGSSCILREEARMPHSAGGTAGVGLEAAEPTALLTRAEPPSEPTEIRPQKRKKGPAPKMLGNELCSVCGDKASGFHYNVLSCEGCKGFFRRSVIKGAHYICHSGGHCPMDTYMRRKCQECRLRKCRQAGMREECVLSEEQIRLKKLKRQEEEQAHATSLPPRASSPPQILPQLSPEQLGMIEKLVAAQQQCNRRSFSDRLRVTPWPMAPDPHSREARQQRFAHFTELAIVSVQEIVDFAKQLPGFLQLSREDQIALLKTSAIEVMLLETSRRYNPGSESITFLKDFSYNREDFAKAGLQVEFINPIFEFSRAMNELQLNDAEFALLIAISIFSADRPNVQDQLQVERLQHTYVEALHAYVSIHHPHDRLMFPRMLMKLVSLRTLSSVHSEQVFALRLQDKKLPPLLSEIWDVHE
Assay: co-IP

Myc-HMGB1 (from UniProt P09429 1-215)
binding: no binding
